Patent US20020061888A1, “Combination therapy for the prophylaxis and treatment of hyperlipidemic conditions and disorders” (priority 2000, published 2002)
“Also recorded” adds a separate entry of the source. For at least one compound, name, drawing or mass did not settle the structure.

Legend:
Male beagle dogs [1] = experiment: Serum total cholesterol in beagle dogs (serum lipid measurements); assay type: in vivo; settings: pravastatin 10 mg/kg/day, four weeks
Experimental: Male beagle dogs (9-10 kg) obtained from Marshall farms were fed a normal chow diet once a day for a two hour interval and given water ad libitum. Prior to initiating treatment, the dogs were weighed and blood samples were drawn from the cephalic vein of each dog following an overnight fast to evaluate pretreatment serum total cholesterol levels at the start of the study. […] All doses were administered in gelatin capsules per os to each dog between 9:00-9:30 a.m. prior to feeding. All animals were fed between 9:30-10:00 a.m. and were allowed two hours to eat, at which time any remaining food was removed. […] Animals were dosed daily for three weeks and blood samples were taken at the end of each week after an overnight fast for comparison with pretreatment serum total cholesterol levels. Three consecutive 24 hour fecal samples were collected for each group during the last 72 hours of each week and used to measure the concentration of fecal biles acids excreted during that time period.
Blood was collected from the cephalic vein of each dog into serum separator tubes. The blood was centrifuged at 900×g for 20 minutes at room temperature and the serum decanted. […] Commercial calibrator and quality control materials were analyzed with each run to verify assay accuracy and precision. […]

Male beagle dogs [2] = experiment: Fecal bile acid concentration in beagle dogs (enzymatic 3α-hydroxysteroid dehydrogenase assay of fecal extracts); assay type: in vivo; settings: pravastatin monotherapy (see Table X-3D)
Experimental: Male beagle dogs (9-10 kg) obtained from Marshall farms were fed a normal chow diet once a day for a two hour interval and given water ad libitum. Prior to initiating treatment, the dogs were weighed and blood samples were drawn from the cephalic vein of each dog following an overnight fast to evaluate pretreatment serum total cholesterol levels at the start of the study. […] All doses were administered in gelatin capsules per os to each dog between 9:00-9:30 a.m. prior to feeding. All animals were fed between 9:30-10:00 a.m. and were allowed two hours to eat, at which time any remaining food was removed. […]
Fecal samples were collected to determine the fecal bile acid (“FBA”) concentration for each animal. […] The concentration of bile acids (μmoles/gram homogenate) was determined using a 96-well enzymatic assay system described in van der Meer et al., “t-Butanol Extraction of Feces: A Rapid Procedure For Enzymic Determination Of Fecal Bile Acids”, Cholesterol, Metabolism in Health and Disease: Studies in the Netherlands, edited by Beynen, et al., Ponsen and Looyen, Wageningen, 1985; and Turley et al., “Re-evaluation of the 3 Alpha-Hydroxysteroid Dehydrogenase Assay For Total Bile Acids In Bile”, J. Lipid Research, 19:924-928, 1978. […]

CC[C@H](C)C(=O)O[C@H]1C[C@H](O)C=C2C=C[C@H](C)[C@H](CC[C@@H](O)C[C@@H](O)CC(=O)O)[C@H]21 [pravastatin, Pravastatin]
difference between a.m. and p.m. dosing in change of serum total cholesterol (Male beagle dogs [1]): no statistically significant difference; also recorded: statistically indistinguishable | effect on fecal bile acid concentration (Male beagle dogs [2]): did not appear to have a significant affect
